PubChem BioAssay AID504808 | Drosophila RNAi Screening Center, 2011

Screen: 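Fly genes required to hold E2F transcription in check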 (primary screen)
Cells: Drosophila S2 cells
Reagents: long dsRNA against Drosophila genes
Measured: 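Firefly luciferase driven by E2F sites, normalised to Renilla luciferase on the same minimal promoter, measured by plate reader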
Reading the numbers: E2F firefly: higher = more E2F reporter activity; Renilla normaliser: higher = more normaliser reporter signal
Call rule: 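a knock-down counted as active when the firefly/Renilla E2F signal rose above 50%, a threshold chosen arbitrarily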
The screen tested about 21,000 reagents; shown is a random part of those with a known target gene and a result. Of all reagents, 18 (0.084%) got an active call. 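Raw counts without plate normalisation, one of two replicates; the ratio scores behind the calls were not deposited.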 Unmarked entries are inactive. Reagents against one gene are numbered here. A plus sign joins genes that one reagent is predicted to hit. No sequences are given here. Not given: the amount of reagent, the time to read-out.

gene	reagent no.	E2F firefly, rep 1	Renilla normaliser, rep 1
Tpc1	1	1.36e5	6140
Tpc1	2	73348	3776
fry (furry)	1	1.30e5	4748
fry (furry)	2	1.16e5	5844
fry (furry)	3	1.13e5	6355
fry (furry)	4	73057	3427
Mtr4 (Mtr4 helicase)	1	65351	3159
Ir8a (Ionotropic receptor 8a)	1	1.35e5	5654
Ir8a (Ionotropic receptor 8a)	2	1.20e5	5505
Drsl2 (Drosomycin-like 2)	1	1.06e5	3772
Acsf2 (Acyl-CoA synthetase family member 2)	1	1.52e5	4780
CG17855	1	1.68e5	5987
eIF3f2 (eukaryotic translation initiation factor 3 subunit f2)	1	1.08e5	4416
CG15253	1	97810	3932
CG34049	1	1.35e5	5324
CG34327	1	2.33e5	5373
CG16736	1	1.28e5	5498
shi (shibire)	1	7491	712
CG6429	1	1.30e5	4465
CG7387	1	83319	4301
Mvk + CG33672 + spt4	1	1.38e5	5621
Mvk + CG33672 + spt4	2	3173	217
GlcT (Glucosylceramide synthase)	1	79017	3364
CG10587	1	1.45e5	7031
tai (taiman)	1	1.32e5	4170
tai (taiman)	2	1.67e5	5421
Pex6 + Hao	1	3080	163
Pex6 + Hao	2	1.49e5	4878
wal (walrus)	1	3065	220
Lim3	1	1.02e5	4413
Lim3	2	1.04e5	5402
HP1D3csd (Heterochromatin Protein 1D3 chromoshadow domain)	1	1.53e5	5743
Atx2 (Ataxin-2)	1	52151	3486
vir (virilizer)	1	1.05e5	4700
CG3038	1	1.01e5	5005
toy (twin of eyeless)	1	2034	996
Fs (Follistatin)	1	73811	3710
Fs (Follistatin)	2	86693	3968
CG13168	1	89543	3791
Cul3 (Cullin 3)	1	73222	3768
Bet3 (Blocked early in transport 3)	1	1.24e5	7665
Syp (Syncrip)	1	83666	2923
Syp (Syncrip)	2	61816	3652
CG13404	1	1.56e5	6329
CG10126	1	73682	3703
CG1888	1	1.60e5	5967
Trm7-34 (tRNA methyltransferase 7-34)	1	1.37e5	6813
Ir56c (Ionotropic receptor 56c)	1	1.47e5	5056
CG10336	1	83929	3593
Swim (Secreted Wg-interacting molecule)	1	81594	3426
pnr (pannier)	1	67726	3525
app (approximated)	1	1.39e5	5447
app (approximated)	2	1.20e5	6600
app (approximated)	3	93466	4297
tty (tweety)	1	1.62e5	4956
CG13928	1	99341	4250
CG30447	1	1.58e5	5679
CG12511	1	1.56e5	5263
Traf4 (TNF-receptor-associated factor 4)	1	1.19e5	4463
Traf4 (TNF-receptor-associated factor 4)	2	79577	3178
Fbw5 (F-box and WD repeat domain containing 5)	1	1.47e5	4862
CG13427	1	1.39e5	4733
tRNA:Leu-CAA-2-3 (transfer RNA:Leucine-CAA 2-3)	1	95522	2566
CG1418	1	1.53e5	5266
CG15638	1	92140	4151
Tsp42Ee (Tetraspanin 42Ee)	1	1.50e5	5117
AnxB10 (Annexin B10)	1	1.42e5	5807
Cda9 (Chitin deacetylase-like 9)	1	1.43e5	4673
GATAd	1	63622	3223
Sk2 (Sphingosine kinase 2)	1	85865	3106
crq (croquemort)	1	1.72e5	6330
CG17005	1	1.56e5	5130
CG10208	1	1.21e5	6276
OS9 (Olfactory-specific 9)	1	94994	4243
Rbp1 (RNA-binding protein 1)	1	66500	3528
EMC8-9 (ER membrane protein complex subunit 8/9)	1	73390	3150
Ir56b (Ionotropic receptor 56b)	1	1.41e5	5325
Dhod (Dihydroorotate dehydrogenase)	1	80477	4383
Remo (Remoulade)	1	1.06e5	4794
CG9624	1	96953	5322
CG4502	1	69076	204
CG31562 (retired record)	1	1.18e5	5610
CG31562 (retired record)	2	1.32e5	6483
uno (univalents only)	1	1.68e5	5054

12 entries already listed, ordered by “E2F firefly, rep 1”, lowest first.
gene	reagent no.	E2F firefly, rep 1	Renilla normaliser, rep 1
Mtr4 (Mtr4 helicase)	1	65351	3159
fry (furry)	4	73057	3427
CG15253	1	97810	3932
Drsl2 (Drosomycin-like 2)	1	1.06e5	3772
eIF3f2 (eukaryotic translation initiation factor 3 subunit f2)	1	1.08e5	4416
fry (furry)	3	1.13e5	6355
fry (furry)	2	1.16e5	5844
Ir8a (Ionotropic receptor 8a)	2	1.20e5	5505
fry (furry)	1	1.30e5	4748
Ir8a (Ionotropic receptor 8a)	1	1.35e5	5654
Acsf2 (Acyl-CoA synthetase family member 2)	1	1.52e5	4780
CG17855	1	1.68e5	5987
